From doi:10.1101/2020.02.28.969832 come the findings set out here.

The chains behind the UniProt entries cited, without tags or fusion partners.
UniProt Q99J83, whole entry: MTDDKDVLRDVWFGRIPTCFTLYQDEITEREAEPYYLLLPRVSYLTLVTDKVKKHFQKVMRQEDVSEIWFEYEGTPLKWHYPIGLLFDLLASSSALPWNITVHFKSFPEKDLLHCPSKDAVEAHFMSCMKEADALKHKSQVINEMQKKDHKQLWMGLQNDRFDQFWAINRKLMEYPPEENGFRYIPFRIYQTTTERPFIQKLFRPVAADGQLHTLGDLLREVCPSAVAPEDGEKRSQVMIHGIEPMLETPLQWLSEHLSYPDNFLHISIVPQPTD
UniProt Q9CQY1, whole entry: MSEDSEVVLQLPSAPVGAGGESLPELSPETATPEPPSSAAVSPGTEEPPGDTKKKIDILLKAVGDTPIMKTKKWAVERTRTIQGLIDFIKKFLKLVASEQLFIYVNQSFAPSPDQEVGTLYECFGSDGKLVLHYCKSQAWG
UniProt O94817, whole entry: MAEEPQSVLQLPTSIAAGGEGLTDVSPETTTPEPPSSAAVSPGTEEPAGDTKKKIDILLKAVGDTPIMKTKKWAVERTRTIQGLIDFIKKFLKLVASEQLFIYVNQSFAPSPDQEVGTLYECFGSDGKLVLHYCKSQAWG

Common to all, as to test: co-IP
In assay [1] the target is FLAG-MSR1 (human) aa51-end, extracellular C-terminal part with a transmembrane domain (human) (UniProt P21757).
The target in assay [2] is FLAG-MSR1 (human) aa1-50, cytoplasmic N-tail (human) (UniProt P21757).
The target of assay [3] is T1, FLAG-Msr1 (mouse) (mouse) (UniProt P30204).
T1 sequence: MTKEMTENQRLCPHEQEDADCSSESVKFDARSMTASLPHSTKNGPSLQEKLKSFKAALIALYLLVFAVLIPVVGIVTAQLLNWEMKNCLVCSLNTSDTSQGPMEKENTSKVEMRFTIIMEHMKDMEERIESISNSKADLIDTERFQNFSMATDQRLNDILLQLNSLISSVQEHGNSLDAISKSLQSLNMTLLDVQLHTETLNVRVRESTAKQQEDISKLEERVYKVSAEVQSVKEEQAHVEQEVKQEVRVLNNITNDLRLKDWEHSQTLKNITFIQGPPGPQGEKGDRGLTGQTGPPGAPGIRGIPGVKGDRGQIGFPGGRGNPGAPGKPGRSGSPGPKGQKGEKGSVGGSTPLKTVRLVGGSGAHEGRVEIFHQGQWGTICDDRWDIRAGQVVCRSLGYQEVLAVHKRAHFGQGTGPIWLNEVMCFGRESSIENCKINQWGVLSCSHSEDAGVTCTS

For assay [4], the target named is T2, FLAG-MSR1 (human), full-length (human) (UniProt P21757).
T2 sequence: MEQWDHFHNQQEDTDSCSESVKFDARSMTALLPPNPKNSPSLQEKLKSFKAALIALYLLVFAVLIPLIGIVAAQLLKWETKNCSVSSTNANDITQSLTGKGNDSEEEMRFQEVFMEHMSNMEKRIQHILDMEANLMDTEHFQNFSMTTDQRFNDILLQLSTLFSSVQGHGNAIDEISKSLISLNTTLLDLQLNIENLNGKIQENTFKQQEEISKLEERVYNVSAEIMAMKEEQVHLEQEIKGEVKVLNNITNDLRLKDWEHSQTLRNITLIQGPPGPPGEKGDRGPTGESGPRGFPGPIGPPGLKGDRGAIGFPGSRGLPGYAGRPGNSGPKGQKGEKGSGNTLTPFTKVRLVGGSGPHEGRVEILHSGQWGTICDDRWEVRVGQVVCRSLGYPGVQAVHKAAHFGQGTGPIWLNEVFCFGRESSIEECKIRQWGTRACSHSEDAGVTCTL

Assay [5] deals with T3, endogenous Msr1 (mouse, bone marrow-derived macrophages) (mouse (endogenous in BMDMs)) (UniProt P30204).
T3 sequence: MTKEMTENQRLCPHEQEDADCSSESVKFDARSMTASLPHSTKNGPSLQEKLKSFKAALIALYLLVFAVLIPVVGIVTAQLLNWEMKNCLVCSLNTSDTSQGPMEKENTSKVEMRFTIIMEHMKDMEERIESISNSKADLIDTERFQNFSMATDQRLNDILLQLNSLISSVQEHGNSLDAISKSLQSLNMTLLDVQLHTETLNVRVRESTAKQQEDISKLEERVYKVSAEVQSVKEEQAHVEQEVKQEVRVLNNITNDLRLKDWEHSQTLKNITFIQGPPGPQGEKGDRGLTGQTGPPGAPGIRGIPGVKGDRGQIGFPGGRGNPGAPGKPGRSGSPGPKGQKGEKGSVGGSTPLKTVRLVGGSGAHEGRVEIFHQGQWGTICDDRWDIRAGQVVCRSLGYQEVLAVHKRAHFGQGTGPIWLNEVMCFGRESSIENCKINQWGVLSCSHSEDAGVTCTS

Assay [6] has as its target FLAG-Atg5 (mouse) (mouse) (UniProt Q99J83).
The target in assay [7] is FLAG-Atg12 (mouse) (mouse) (UniProt Q9CQY1).

These are yes or no findings as the source states them, for the method shown. Binding seen in cells or lysates may run through a third protein. Some results given as binding are weak or reduced against the parent protein; the word gives no strength. For some assays here: Tags and fused reporters may be left off the sequences shown.

With “endogenous human ATG12 (of the ATG5-ATG12 complex) (from UniProt O94817 1-140)”, the binding entry was “no binding” in assay [1], “binds” in assay [2], “binds” in assay [3] and “binds” in assay [4].

For the molecule “endogenous mouse Atg5 (of the Atg5-Atg12 complex) (from UniProt Q99J83 1-275)”, in assay [5], the binding entry is listed as “binds”.

“endogenous mouse Atg12 (of the Atg5-Atg12 complex) (from UniProt Q9CQY1 1-141)”: the binding entry in assay [5] is listed as “binds”.

B1: Myc-Msr1 (mouse) (receptor, UniProt P30204 1-458)
chain: MTKEMTENQRLCPHEQEDADCSSESVKFDARSMTASLPHSTKNGPSLQEKLKSFKAALIALYLLVFAVLIPVVGIVTAQLLNWEMKNCLVCSLNTSDTSQGPMEKENTSKVEMRFTIIMEHMKDMEERIESISNSKADLIDTERFQNFSMATDQRLNDILLQLNSLISSVQEHGNSLDAISKSLQSLNMTLLDVQLHTETLNVRVRESTAKQQEDISKLEERVYKVSAEVQSVKEEQAHVEQEVKQEVRVLNNITNDLRLKDWEHSQTLKNITFIQGPPGPQGEKGDRGLTGQTGPPGAPGIRGIPGVKGDRGQIGFPGGRGNPGAPGKPGRSGSPGPKGQKGEKGSVGGSTPLKTVRLVGGSGAHEGRVEIFHQGQWGTICDDRWDIRAGQVVCRSLGYQEVLAVHKRAHFGQGTGPIWLNEVMCFGRESSIENCKINQWGVLSCSHSEDAGVTCTS
As to B1, the binding result in assay [6] and in assay [7] was “binds” throughout.
